Laboratory results taken from paper PMC8776765.
Results are given in words; binding and its absence hold for the method and conditions named. In cells and extracts the contact can be indirect. Some results given as binding are weak or reduced against the parent protein; the word gives no strength.

Sequences of proteins named here, by UniProt entry; tags and fusion partners are left off.
UniProt P70452: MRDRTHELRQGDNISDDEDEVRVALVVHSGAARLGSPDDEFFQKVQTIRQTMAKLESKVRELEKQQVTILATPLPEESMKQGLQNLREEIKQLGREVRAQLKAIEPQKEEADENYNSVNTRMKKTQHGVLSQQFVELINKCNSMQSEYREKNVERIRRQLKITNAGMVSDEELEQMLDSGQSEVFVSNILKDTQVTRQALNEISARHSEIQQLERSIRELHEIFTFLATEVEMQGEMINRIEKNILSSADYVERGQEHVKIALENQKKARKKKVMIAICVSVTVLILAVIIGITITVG
UniProt Q8K1M6: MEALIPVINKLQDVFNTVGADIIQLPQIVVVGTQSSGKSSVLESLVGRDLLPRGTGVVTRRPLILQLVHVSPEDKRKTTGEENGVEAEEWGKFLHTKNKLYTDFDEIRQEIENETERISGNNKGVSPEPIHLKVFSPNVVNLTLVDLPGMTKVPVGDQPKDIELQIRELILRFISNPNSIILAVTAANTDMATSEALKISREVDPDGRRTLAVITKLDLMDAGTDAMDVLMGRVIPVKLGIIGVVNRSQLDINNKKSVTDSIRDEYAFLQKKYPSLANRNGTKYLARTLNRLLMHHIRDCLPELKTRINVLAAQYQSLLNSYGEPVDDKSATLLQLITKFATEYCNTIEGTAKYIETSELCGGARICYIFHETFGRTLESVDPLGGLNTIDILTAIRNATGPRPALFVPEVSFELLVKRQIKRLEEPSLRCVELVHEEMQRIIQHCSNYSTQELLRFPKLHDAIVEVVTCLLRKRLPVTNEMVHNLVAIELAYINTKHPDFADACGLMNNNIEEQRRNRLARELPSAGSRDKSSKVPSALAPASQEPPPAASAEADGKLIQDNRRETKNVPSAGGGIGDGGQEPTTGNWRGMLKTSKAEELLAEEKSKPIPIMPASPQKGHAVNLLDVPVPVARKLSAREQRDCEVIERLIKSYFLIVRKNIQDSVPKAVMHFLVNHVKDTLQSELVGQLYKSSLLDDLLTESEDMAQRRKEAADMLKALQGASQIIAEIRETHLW

How the values were obtained:
[1] = biological target: Syntaxin 4 (STX4) (mouse (endogenous in hindlimb skeletal muscle)) (UniProt P70452); experiment: co-IP; mouse muscle mitochondrial fractions (0.5 mg protein per reaction) incubated with 0.5 µg STX4 antibody overnight at 4 °C, Protein-G agarose beads 2 h; immunoblot for Drp1; IgG control
[2] = biological target: Syntaxin 4 (STX4) (mouse (endogenous in hindlimb skeletal muscle)) (UniProt P70452); experiment: co-IP; 3 mg mouse whole-hindlimb extract (WT or skmSTX4-iKO) incubated with 3 µg STX4 antibody overnight at 4 °C, Protein-G agarose beads 2 h, washed three times with lysis buffer; immunoblot for Drp1; IgG control

dynamin-related protein (Drp1) (from UniProt Q8K1M6 1-736)
binding [1]: binds
binding [2]: binds
